Measurements published in the supplement of paper PMC6411743.
± gives the standard deviation of the averaged measurements. Some of the results follow.

Target: T1, NUDT8 (UniProt Q8WV74)
T1 sequence (whole entry): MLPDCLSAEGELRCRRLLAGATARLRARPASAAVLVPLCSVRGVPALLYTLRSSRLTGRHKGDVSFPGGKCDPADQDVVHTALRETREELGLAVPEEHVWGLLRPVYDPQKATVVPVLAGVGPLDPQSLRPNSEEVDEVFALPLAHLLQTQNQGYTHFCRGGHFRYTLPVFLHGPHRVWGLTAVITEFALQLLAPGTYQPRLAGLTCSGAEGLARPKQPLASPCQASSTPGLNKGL
Assay: NP40-soluble protein abundance relative to vehicle (solubility fold change) (ratio); higher = more soluble protein in presence of GTP
Method: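 Solubility proteome profiling in Jurkat crude lysate. Lysate was treated with Mg-GTP (0.1-10 mM) for 10 min at room temperature and 3 min at 37 °C, then solubilised with 0.8% NP40 and benzonase, followed by ultracentrifugation. Proteins were quantified by TMT10 LC-MS/MS; the value is the NP40-soluble abundance relative to the NP40-processed vehicle, from 3 independent experiments.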

Nc1nc2c(ncn2[C@@H]2O[C@H](COP(=O)(O)OP(=O)(O)OP(=O)(O)O)[C@@H](O)[C@H]2O)c(=O)[nH]1 [guanosine triphosphate] was tested, and the NP40-soluble protein abundance (concentration: 0.1mM) was 0.918 ± 0.07, the NP40-soluble protein abundance (concentration: 0.5mM) was 0.901 ± 0.057 and the NP40-soluble protein abundance (concentration: 1mM) was 1.01 ± 0.054. It also gave an NP40-soluble protein abundance (concentration: 2mM) of 1.04 ± 0.049, an NP40-soluble protein abundance (concentration: 4mM) of 1.07 ± 0.078 and an NP40-soluble protein abundance (concentration: 6mM) of 1.02 ± 0.033. It also gave an NP40-soluble protein abundance (concentration: 8mM) of 0.973 ± 0.1 and an NP40-soluble protein abundance (concentration: 10mM) of 1.04 ± 0.1.
